## Results of single-concentration screens

T. brucei: 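Whole-parasite assay of Trypanosoma brucei over 72 hours; the read-out is not stated. Compounds at 30 µM. Direction is inferred from retests: higher values go with stronger inhibition. Values scatter widely below zero; nearly all retest evidence comes from the higher of the two concentrations used. About 64,000 compounds were tested under these conditions; 1.5% (about 940) showed 50% or more at least once.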
Leishmania in macrophages: 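Cell assay of Leishmania donovani living inside macrophages; the read-out is not stated. Concentration: 30 µM. Direction is inferred from retests: higher values go with stronger inhibition. Of about 69,000 compounds tested this way, about 1,000 (1.5%) reached 50% or more in at least one test.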

Each number is a percent effect as filed. How 0% and 100% were set is not recorded. Most values in the screen are low, and negative values occur. This is an unselected part of the compounds tested. Two or more numbers in one place are separate tests of the same structure; such repeats can differ widely. A dash means the value is not listed here; it may have been measured.

SMILES	T. brucei	Leishmania in macrophages
[H][C@]12CNC[C@@]1(C(=O)NC1CCN(c3ncccc3C#N)CC1)CN(C)C2	5.271	-23.9
O=C(CSCC1CC1)N1CCCC(c2nccn2Cc2cccnc2)C1 (configuration not stated)	-26.5	0.2219
NC(=O)C(NC(=O)COC1CCCC1)c1ccccc1 (configuration not stated)	-34.26	5.487
O=C(CCc1ccccn1)N1CCCC(n2cncn2)C1 (configuration not stated)	-11.44	13.81
[H][C@@]12CN(S(C)(=O)=O)C[C@]1([H])OCC(=O)N2CC1CCC1	-13.13	-30.84
Cc1n[nH]c(C2CN(C(=O)c3coc(Br)c3)CCO2)n1 (configuration not stated)	-12.29	23.38
O=C(NCCC(=O)N1CCCc2ccccc21)c1ccc(F)cc1F	-	22.34
CC(C)NC(=O)c1ccc2c(c1)nc1n2CCN(c2ccccc2)C1	50.34	-14.19
O=C(O)C(F)(F)F.O=C(c1ccccc1)N1CCCC2(CCN2Cc2cccc(F)c2)C1 (configuration not stated)	-48.76	54.88
O=C(O)c1c[nH]c2cc(NS(=O)(=O)c3cccc(Cl)c3F)ccc12	1.351	-2.339
O=C(c1ccc(-n2cccn2)c(F)c1)N1CCCN2CCCC2C1 (configuration not stated)	3.133	-1.683
CCc1cccc(C)c1NC(=O)C1CC(=O)N(Cc2ccccn2)C1 (configuration not stated)	23.63	0.3472
Cc1noc(C)c1CN1CCCC1c1c(C)nn(C)c1Cl (configuration not stated)	18.93	30.76
Cc1[nH]nc2ncc(C(=O)N3CCN(CC(C)(C)O)CC3)cc12	-16.23	-20.81
c1cncc(O[C@H]2COCCN(Cc3c[nH]c4ccccc34)C2)c1	-11.13	7.48
Cn1cc(C2CCCN2C(=O)CCCOc2ccccc2F)cn1 (configuration not stated)	-4.355	-59.41
CSc1ccc(OC(C)C(=O)Nc2cc(C)n[nH]2)cc1 (configuration not stated)	11.16	45.08
COCCN1CCN(Cc2c(C3CCNCC3)[nH]c3ncccc23)CC1.Cl	1.283	15.04
COc1ccccc1CC(=O)NC1CCCc2cn[nH]c21 (configuration not stated)	-22.87	26.99 & 3.157
COc1cccc(COCC(=O)NC(C)c2nnc3n2CCC3)c1 (configuration not stated)	-20.65	-30.46
O=C(O)CSc1nnc(-c2cn[nH]c2)n1-c1ccccc1Cl	-16.19	-14.54
CC(C(=O)N1CCOCC1)S(=O)(=O)Cc1noc(C(C)(C)C)n1 (configuration not stated)	-87.97	-20.68
Cc1n[nH]c(C)c1NC(=O)CCc1cccc(C2CCCN(C)C2)n1 (configuration not stated)	-21.8	-0.885 & -12.82
CC1(C(=O)NCc2ccsc2)CCOCC1	-	8.212
CC(c1nc(C2CC2)no1)N1CCc2c(ncn2C2CC2)C1 (configuration not stated)	-47.76	37.93
COCCN(CCN(C)C)C(=O)NC1CC1	-5.762	13.69
Cc1nn(C)c(C)c1NC(=O)CNc1cc(C(F)(F)F)ccc1F	-38.25	-17.3
CCOC(=O)N1[C@@H](c2ccco2)[C@@H](C(=O)NC)C[C@]12CCCCNC2=O	-37.4	-10.23
Cc1ccc(F)c2c1N(C(=O)c1cn(CC(=O)N(C)C)nn1)CCC2	-21.73	-28.86
CCCc1cnc(C)nc1NCCc1nc(C)cc(=O)[nH]1	-11.06	25.75
O=C(c1ccsc1)N1CC(C(=O)N2CCOCC2)C2(CCOCC2)C1 (configuration not stated)	-21.21	9.829
CC1CCCN(CC(=O)N2CCC(c3ncc4c(n3)CCNC4)CC2)C1 (configuration not stated)	-16.93	-16.24
CC(=O)N(C)C1CCN(c2ncc3c(n2)CCN3c2ccccc2)C1 (configuration not stated)	-44.28	-16.35
CCC(C(=O)NCc1ccncc1)N(c1cccc(C)c1)S(C)(=O)=O (configuration not stated)	11.19	-0.03306
Cc1cccc(N2CCN(CCS(=O)(=O)c3ccc(Br)cc3)CC2)c1C	-11.19	18.63
Cc1cc(C)n(-c2ccc(N3CCC(O)CC3)nc2)n1	0.444	3.576
COC(=O)CNC(=O)c1nc(Cl)sc1C(C)C	0.3918	5.935
COc1cc(C(=O)NCC2CCCN(Cc3ccco3)C2)ccn1 (configuration not stated)	-137.6	-33.12
COc1ccc(CCC(=O)Nc2cccnc2N2CCCC2)cc1Br	23.11	33.61
Cc1nc(NCc2scnc2-c2ccccc2)cc(C2CCNCC2)n1	-4.856	6.107
Cc1cc(CN2CCC(CNC(=O)C3(c4ccccc4)CC3)C2)[nH]n1 (configuration not stated)	-172.4	-7.031
CNc1ncc(CN(C)c2nc(C)c3ccc(S(C)(=O)=O)cc3n2)cn1	-24.21	17.33
Cl.Cl.c1cnc(NCc2cncc3c2CCN(Cc2ccsc2)C3)nc1	-20.35	9.209
COc1ccc(-c2noc([C@@H]3C[C@@H](O)CN3C3CCCCC3)n2)cc1	-3.843	10.12
CC(C)NC(=O)CC1CC2(CCN(S(C)(=O)=O)CC2)c2ccccc21 (configuration not stated)	-5.363	30.75
CN(Cc1cc2cc(F)ccc2[nH]1)C(=O)C1CC(=O)N(C(C)(C)C)C1 (configuration not stated)	-79.41	55.15
CCN(CC)c1ncc(CNCC2CCCn3ccnc32)s1 (configuration not stated)	-19.49	9.484
C[C@H](O)CNc1cc(-c2cn[nH]c2)ncn1	-19.46	26.23 & 12.25
CCOc1ncccc1C(=O)N1CCCC1Cn1nc(C)cc1C (configuration not stated)	-	-11.62
CC(=O)N[C@@H]1CN(CC(=O)NCc2ccccc2C)C[C@H]1C(C)C	-32.85	-0.9822
O=C(CC1C=CCC1)Nc1ncn(CC(=O)N2CCCCCC2)n1 (configuration not stated)	-	15.14
CCCn1c(C)c(CC(=O)NCCC(N)=O)c2c1CC(C)(C)CC2=O	-41.08	19.42
O=C(Cc1cccc(F)c1)N1CCn2cc(Cn3cccn3)nc2C1.O=C(O)C(F)(F)F	-215.4	14.6
CC(=O)N1CCN(Cc2nnc(C(C)(C)C)o2)CC1	-13.16	10.87
CC(NCc1cccc(NC(=O)C2CCCCC2)c1)c1cnn(C)c1 (configuration not stated)	4.95	12.74
CNC(=O)c1n[nH]c2c1C(c1cccc3[nH]ccc13)CC(=O)N2 (configuration not stated)	-16.31	10.39
CS(=O)(=O)N1CC2(CCN(C3CCCCC3)CC2)Cc2ccccc21	-	-7.433
CS(=O)(=O)c1ccc(C(=O)N2CCCC(n3ccnc3)C2)cc1 (configuration not stated)	-15.02	1.265
O=C(c1ccc2cccnc2n1)N(Cc1ccsc1)CC1CCCO1 (configuration not stated)	-13.9	-3.338
O=C(Nc1ccc(Br)cc1F)c1ccc(N2CCCCC2)nn1	-36.65	3.982
NC(=O)c1ccc(NC(=O)c2ccncc2Cl)cn1	-25.66	4.641
Cc1occc(=O)c1OCC(=O)N1CCN(c2cccc(Cl)c2)CC1	-15.28	13.55 & -3.75
O=C(O)C(F)(F)F.O=C(O)C(F)(F)F.[H][C@@]12COC[C@]1(C(=O)N1CCCO1)CN(Cc1cccnc1)C2	-	3.283
[H][C@@]12CCN(C(=O)C(C)C)CC[C@]1(C(=O)Nc1ccccc1)CCN2C	-93.4	56.37
O=C(O)C(F)(F)F.[H][C@@]12C[C@H](C(=O)N3CCCCO3)CN(CC3CC3)[C@]1([H])CCO2	-275.5	15.87
CCC(=O)N1CCC2(CC1)C(=O)N(Cc1cccnc1)CCN2C.O=C(O)C(F)(F)F.O=C(O)C(F)(F)F	-18.91	0.2995
CCN(C(C)=O)c1nc(CN2CCCCC2Cn2cncn2)cs1 (configuration not stated)	-1.216	17.59

For reference, 9 entries once more:

* O=C(c1ccsc1)N1CC(C(=O)N2CCOCC2)C2(CCOCC2)C1 (configuration not stated) : T. brucei: -21.21%; Leishmania in macrophages: 9.829%
* O=C(O)C(F)(F)F.O=C(c1ccccc1)N1CCCC2(CCN2Cc2cccc(F)c2)C1 (configuration not stated) : T. brucei: -48.76%; Leishmania in macrophages: 54.88%
* CC(NCc1cccc(NC(=O)C2CCCCC2)c1)c1cnn(C)c1 (configuration not stated) : T. brucei: 4.95%; Leishmania in macrophages: 12.74%
* O=C(c1ccc(-n2cccn2)c(F)c1)N1CCCN2CCCC2C1 (configuration not stated) : T. brucei: 3.133%; Leishmania in macrophages: -1.683%
* CCN(C(C)=O)c1nc(CN2CCCCC2Cn2cncn2)cs1 (configuration not stated) : T. brucei: -1.216%; Leishmania in macrophages: 17.59%
* CC1CCCN(CC(=O)N2CCC(c3ncc4c(n3)CCNC4)CC2)C1 (configuration not stated) : T. brucei: -16.93%; Leishmania in macrophages: -16.24%
* CC(c1nc(C2CC2)no1)N1CCc2c(ncn2C2CC2)C1 (configuration not stated) : T. brucei: -47.76%; Leishmania in macrophages: 37.93%
* CC(=O)N1CCN(Cc2nnc(C(C)(C)C)o2)CC1 : T. brucei: -13.16%; Leishmania in macrophages: 10.87%
* O=C(NCCC(=O)N1CCCc2ccccc21)c1ccc(F)cc1F : Leishmania in macrophages: 22.34%

The values are deposited in ChEMBL (CHEMBL3988442, “University of Dundee, Small-Polar-MMV Screening Library” (2021)).